Assay results published in PMC11659602 (Communications Chemistry, 2024).
Some peptides are written in HELM: one residue between dots, names in brackets for other building blocks, links after the first $.

Experiment: peptide synthesis
Settings: late stage modification step

PEPTIDE1{[CH2CO].[dY].R.D.[FAO].H.Y.R.H.P.K.Y.C.G.[am]}$PEPTIDE1,PEPTIDE1,1:R3-13:R3$$$V2.0
difficulty met: partial removal of the N-terminal Fmoc group. This led to a mixture of peptide products containing both one and two warheads
